B1: CDK4: human derived protein (ExPASy P11802), on-chip cell-free expressed with His-tag (protein, UniProt P11802 2-303, looked up)
Cyclin-dependent kinase 4: ATSRYEPVAEIGVGAYGTVYKARDPHSGHFVALKSVRVPNGGGGGGGLPISTVREVALLRRLEAFEHPNVVRLMDVCATSRTDREIKVTLVFEHVDQDLRTYLDKAPPPGLPAETIKDLMRQFLRGLDFLHANCIVHRDLKPENILVTSGGTVKLADFGLARIYSYQMALTPVVVTLWYRAPEVLLQSTYATPVDMWSVGCIFAEMFRRKPLFCGNSEADQLGKIFDLIGLPPEDDWPRDVSLPRGAFPPRGPRPVQSVVPEMEESGAQLLLEMLTFNPHKRISAFRALQHSYLHKDEGNPE
modifications: His-tag
B2: Ada: E. coli protein (ExPASy P06134), cell-free expressed with C-terminal His-tag (protein)
chain: MKKATCLTDDQRWQSVLARDPNADGEFVFAVRTTGIFCRPSCRARHALRENVSFYANASEALAAGFRPCKRCQPEKANAQQHRLDKITHACRLLEQETPVTLEALADQVAMSPFHLHRLFKATTGMTPKAWQQAWRARRLRESLAKGESVTTSILNAGFPDSSSYYRKADETLGMTAKQFRHGGENLAVRYALADCELGRCLVAESERGICAILLGDDDATLISELQQMFPAADNAPADLMFQQHVREVIASLNQRDTPLTLPLDIRGTAFQQQVWQALRTIPCGETVSYQQLANAIGKPKAVRAVASACAANKLAIIIPCHRVVRGDGTLSGYRWGVSRKAQLLRREAENEERHHHHHH

Experiments:
[1] = test system: Ni-NTA functionalized SWNT/CHI array; test: On-chip cell-free expression and immobilization of His-tag capture proteins, nIR fluorescence of SWNT/CHI array; settings: distance change between Ni2+ ion and SWNT after receptor protein, Förster resonance energy transfer equation
antiHis Ab = test: Protein-protein interaction on SWNT/CHI array, Förster distance calculation; settings: distance change after analyte protein antiHis Ab, Förster equation

| Molecule | Δd1 [1] [nm] | Δd2 (antiHis Ab) |
| --- | --- | --- |
| B1 | 0.07655 |  |
| B2 | 0.1508 | −0.02568 |

Source: patent US10215752B2, “Nanotube array for optical detection of protein-protein interactions” (MASSACHUSETTS INSTITUTE OF TECHNOLOGY, priority 2010, dated 2019)
